Values quoted from earlier work in US8153160B2 (Bayer Pharma Aktiengesellschaft, priority 2005, dated 2012).

Details: in vivo; cited from earlier work

COC(=O)C1=C(C)NC(C)=C(C(=O)OC)C1c1ccccc1[N+](=O)[O-] [Nifedipine]
plasma half-life: about 2 hours
